Reference: article PMC8776094, “Reactive Oxygen Species Production Is Responsible for Antineoplastic Activity of Osmium, Ruthenium, Iridium and Rhodium Half-Sandwich Type Complexes with Bidentate Glycosyl Heterocyclic Ligands in Various Cancer Cell Models” (International Journal of Molecular Sciences, 2022)

What was measured:
[1] = test system: A2780 ovarian cancer cells; assay: SRB assay, 48 h, cytostasis, A2780; format: cell-based; settings: Hill coefficient
Procedure: (§1) The compounds were tested between 0.001694 and 33.3333 µM, using a 4-hour-long MTT test to assess rapid toxicity and a 48-hour-long SRB assay to assess the long-term effects of the inhibition of proliferation (cytostasis). The MTT assay assesses the activity of mitochondrial complex I and detects rapid, direct toxicity, as well as indicating apoptosis and necrosis. The SRB assay measures the total protein content that is proportional to cell numbers; therefore, the assay can detect changes in cell numbers and can thus be used as a readout for cell proliferation. The SRB assay was performed after 48 h of treatment (with the exception of L428 cells, which were tested for 96 h due to their slower proliferation rate). In this setting, the SRB assay informs us of long-term changes to cell proliferation. We assessed the maximal inhibition within that concentration range, and descriptive statistics were performed. We performed a one-way ANOVA, followed by the Kruskal–Wallis test, regardless of the normal or non-normal distribution of the data. Due to the large number of significance values, the results of the significance calculations are provided in an Excel spreadsheet at https://figshare.com/s/28d14597d5041f08eb08 (accessed on 6 January 2022), among other primary data of the study. Where possible, nonlinear regression was performed on the curves to determine the IC50 values ((inhibitor) vs. response—variable slope (four parameters) method with Graphpad v8.0.1). […] In Table 5, we added the IC50 values that we determined for a set of 4 active ruthenium half-sandwich complexes we identified previously, to be used in subsequent structure-activity relationship (SAR) analyses.
A2780 cells were cultured in RMPI 1640 medium, supplemented with 10% fetal calf serum, 2 mM glutamine, and 1% penicillin-streptomycin.
(§2) The assay was performed similarly to the method used in [73]. Cells were seeded in 96-well plates the day before the assay. Cells were treated with the compounds for 48 h, with the exception of L428, where 96 h of treatment was applied. Cells were fixed with 10% trichloroacetic acid (TCA). Fixed cells were washed in distilled water 3 times, followed by staining with SRB (0.4 m/V% dissolved in 1% acetic acid) for 10 min. The stained cells were washed in 1% acetic acid 5 times; the acetic acid was removed, and the cells were left to dry. Protein-bound SRB was released by adding 100 µL 10 mM Tris base. Plates were measured in a plate photometer (Thermo Scientific Multiscan GO spectrophotometer, Waltham, MA, USA) at 540 nm. On each plate, wells were designed to contain untreated cells. In calculations, the readings for these wells were considered as 1 and all readings were expressed relative to these values.
(§3) Statistical analysis was performed using the 8.0.1 version of Graphpad Prism. Values were tested for normal distribution, using the d’Agostino and Pearson normality test. When necessary, values were log-normalized or were normalized using the Box-Cox normalization method or using a two-step transformation, as indicated in the figure captions. Nonlinear regression was performed using the built-in “[Inhibitor] vs. Response—Variable slope (four parameters), least-square fit” utility of Graphpad, yielding the IC50 and Hill slope values.

[2] = test system: ID8 ovarian cancer cell line; assay: SRB assay, 48 h, cytostasis, ID8; format: cell-based; settings: Hill coefficient
Procedure: as §1
ID8 cells were cultured in a high-glucose DMEM (4.5 g/L glucose) medium, supplemented with 4% fetal calf serum, 2 mM glutamine, 1% penicillin-streptomycin, and 1% ITS supplement (I3146).
as §2, §3

[3] = test system: Capan2, a pancreatic adenocarcinoma cell line; assay: SRB assay, 48 h, cytostasis, Capan2; format: cell-based; settings: Hill coefficient
Excerpt: We turned next to assessing whether the cytostatic activity of Os-3, Os-4, Os-5, Os-6 and Ir-6 complexes is specific for ovarian cancer cell lines or if they may be active on other cell lines. To that end, we tested the complexes on another carcinoma cell line (Capan2, a pancreatic adenocarcinoma cell line), on a sarcoma cell line (Saos, an osteosarcoma cell line) and on a lymphoma cell line (L428, a Hodgkin’s lymphoma cell line).
Capan2 cells were maintained in MEM, 10% fetal bovine serum, 1% penicillin/streptomycin, and 2 mM glutamine.
as §2, §3
Here, 1.5 × 10^3 Capan2, 3 × 10^3 Saos cells and 10^4 L428 cells were plated onto 96-well plates. Capan2 and Saos cells were treated with the compounds in the concentrations indicated for 48 h for an SRB assay. L428 cells were treated with the compounds in the concentrations indicated for 96 h, then cells were counted using conventional microscopy and a Burker chamber. Data are represented as average ± SD, from three biological replicates; individual assays were performed in duplicate. Values were normalized for vehicle-treated cells; the absorbance for vehicle-treated cells is equal to 1. A one-way ANOVA, followed by a Kruskal–Wallis test, was performed individually for each compound. The results of the statistical analysis are presented in an Excel spreadsheet at https://figshare.com/s/28d14597d5041f08eb08 (accessed on 6 January 2022). Nonlinear regression was performed on the data.

[4] = test system: ID8 ovarian cancer cell line; design: method as in PMID 34638791; settings: SRB assay, 48 h; Hill coefficient; data previously published; cited from earlier work
[5] = test system: Capan2, a pancreatic adenocarcinoma cell line; design: method as in PMID 34638791; settings: SRB assay, 48 h; Hill coefficient; data previously published; cited from earlier work

Structure (SMILES) | A2780 Hill [1] [µM] | ID8 Hill [2] [µM] | Capan2 Hill [3] [µM] | ID8 Hill [4] [µM] | Capan2 Hill [5] [µM]
Cc1c(C)c(C)[c-](C)c1C.F[P-](F)(F)(F)(F)F.O=C(OCC1OC(n2cc(-c3ccccn3)nn2)C(OC(=O)c2ccccc2)C(OC(=O)c2ccccc2)C1OC(=O)c1ccccc1)c1ccccc1.[Cl][Ir+2] (mixture of isomers) [Ir-6] | 2.08 | 2.46 | 1.58 | – | –
Cc1ccc(C(C)C)cc1.F[P-](F)(F)(F)(F)F.O=C(OCC1OC(n2cc(-c3ccccn3)nn2)C(OC(=O)c2ccccc2)C(OC(=O)c2ccccc2)C1OC(=O)c1ccccc1)c1ccccc1.[Cl][Ru+] (mixture of isomers) [Ru-6] | – | – | – | 2.5 | 2.43
Cc1ccc(C(C)C)cc1.F[P-](F)(F)(F)(F)F.O=C(OCC1OC(c2nnc(-c3ccccn3)o2)C(OC(=O)c2ccccc2)C(OC(=O)c2ccccc2)C1OC(=O)c1ccccc1)c1ccccc1.[Cl][Ru+] (mixture of isomers) [Ru-4] | – | – | – | 3.31 | 1.66
Cc1ccc(C(C)C)cc1.F[P-](F)(F)(F)(F)F.O=C(OC1COC(c2nnc(-c3ccccn3)o2)C(OC(=O)c2ccccc2)C1OC(=O)c1ccccc1)c1ccccc1.[Cl][Ru+] (mixture of isomers) [Ru-5] | – | – | – | 3.59 | 1.66
Cc1ccc(C(C)C)cc1.F[P-](F)(F)(F)(F)F.O=C(OC1COC(c2nnc(-c3ccccn3)o2)C(OC(=O)c2ccccc2)C1OC(=O)c1ccccc1)c1ccccc1.[Cl][Os+] (mixture of isomers) [Os-5] | 1.85 | 2.90 | 2.26 | – | –
Cc1ccc(C(C)C)cc1.F[P-](F)(F)(F)(F)F.O=C(OCC1OC(c2nnc(-c3ccccn3)o2)C(OC(=O)c2ccccc2)C(OC(=O)c2ccccc2)C1OC(=O)c1ccccc1)c1ccccc1.[Cl][Os+] (mixture of isomers) [Os-4] | 2.52 | 3.69 | 1.85 | – | –
Cc1ccc(C(C)C)cc1.F[P-](F)(F)(F)(F)F.O=C(OCC1OC(c2nnc(-c3ccccn3)o2)C(OC(=O)c2ccccc2)C(OC(=O)c2ccccc2)C1OC(=O)c1ccccc1)c1ccccc1.[Cl][Ru+] (mixture of isomers) [Ru-3] | – | – | – | 3.04 | 1.81
Cc1c(C)c(C)[c-](C)c1C.F[P-](F)(F)(F)(F)F.O=C(OCC1OC(n2cc(-c3ccccn3)nn2)C(OC(=O)c2ccccc2)C(OC(=O)c2ccccc2)C1OC(=O)c1ccccc1)c1ccccc1.[Cl][Rh+2] (mixture of isomers) [Rh-6] | 0.71 | – | – | – | –
Cc1ccc(C(C)C)cc1.F[P-](F)(F)(F)(F)F.O=C(OCC1OC(n2cc(-c3ccccn3)nn2)C(OC(=O)c2ccccc2)C(OC(=O)c2ccccc2)C1OC(=O)c1ccccc1)c1ccccc1.[Cl][Os+] (mixture of isomers) [Os-6] | 3.01 | 3.14 | 1.33 | – | –
Cc1ccc(C(C)C)cc1.F[P-](F)(F)(F)(F)F.O=C(OCC1OC(c2nnc(-c3ccccn3)o2)C(OC(=O)c2ccccc2)C(OC(=O)c2ccccc2)C1OC(=O)c1ccccc1)c1ccccc1.[Cl][Os+] (mixture of isomers) [Os-3] | 1.82 | 2.39 | 2.30 | – | –

Where two headings read alike, the source gives them in different places.
